Measured values reported in PubChem BioAssay AID1347076 (National Center for Advancing Translational Sciences (NCATS), 2019).
Hit rate of the full screen: of about 400,000 compounds, about 13,000 (3.2%) were called active. Inconclusive means that the source gave no clear call. Such entries were picked first, then a sample of the others. The call rests on the fitted dose curve; in most records, active means well fitted cell-killing curve with a large enough effect; inconclusive means small, poorly fitted or top-dose-only effect, or effect the other way; inactive means flat fitted curve, though single readings scatter. Potencies of inconclusive entries are doubtful fits and often do not repeat.

assay: qHTS assay for MDR1-selective chemotherapeutics: Primary screen using the drug-selected MDR subline cells KB-V1; conditions: KB-V1 MDR cells viability, CellTiter-Glo, 72 h; activity change, negative = cytotoxicity: at 46.1 µM (top of the series); further: nearly all actives have a fitted effect of over 60% in size
How it was run: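 qHTS viability screen in drug-selected KB-V1 MDR cells: 72 h compound treatment at 37 degrees C, ATP luminescence end point.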
On the % scale 0 is the no-effect control and ±100 the full control effect; potency means the concentration at half of the fitted maximal effect.

Compound | Potency | activity change, negative = cytotoxicity
CC(C)C[C@H]1CNC(=S)N1C[C@H]1CCCN1C[C@H](Cc1ccc(O)cc1)N1C[C@H](Cc2ccccc2)N(CC2CCCCC2)C1=S | inconclusive: 32.6 µM [cytotoxic, single point] | 
O=S(=O)(NCC1CCCO1)c1ccc(S(=O)(=O)N(Cc2ccc(F)cc2)C2CCCCC2)cc1 (stereo not drawn) | inconclusive: 2.59 µM [cytotoxic, full curve, poor fit] | 
Cc1ccc(C)c(N2CCN(C(=O)c3ccc4nc(-c5ccco5)c(-c5ccco5)nc4c3)CC2)c1 | inconclusive: 23.1 µM [cytotoxic, partial curve, poor fit] | 
COc1ccc(-c2nc(CC(=O)Nc3cccc(S(=O)(=O)NC4=NCCC4)c3)cs2)cc1 | inconclusive: 0.58 µM [cytotoxic, full curve, poor fit] | 
Cc1ccc(NC(=O)CCc2ccc(C)o2)c(C)c1 | inconclusive: 29.1 µM [cytotoxic, single point] | 
COc1ccc(CC(=O)NCCc2csc(-c3ccc(C(F)(F)F)cc3)n2)cc1 | inconclusive: 13 µM [cytotoxic, partial curve] | 
CCc1ccccc1NC(=O)Cn1c(=O)n(CC(=O)NCCc2ccccc2)c(=O)c2ccccc21 |  | inactive: 0%
CN(C(=O)c1ccc2c(c1)CCN2S(C)(=O)=O)c1ccccc1 |  | inactive: 4.35%
C=CC[C@@H](CC(=O)N[C@H](CO)Cc1ccccc1)C(=O)N[C@H](COC(=O)[C@@H](CC=C)Cc1ccc(F)cc1)Cc1c[nH]c2ccccc12 | inconclusive: 29.1 µM [cytotoxic, single point] | 
O=C(NCCOC(=O)c1ccc([N+](=O)[O-])cc1)c1cccnc1 | inconclusive: 4.11 µM [rising, full curve, poor fit] | 
Cc1ccc(Cn2nnnc2CN2CCC(c3nc4ccc(Cl)cc4[nH]3)CC2)cc1 | active: 3.26 µM | 
Cc1c(/C=C(\C#N)C(=O)Nc2cccc(Cl)c2)c2ccccc2n1Cc1ccccc1 | inconclusive: 8.2 µM [cytotoxic, partial curve, poor fit] | 
O=C1C2C3C=CC(C3)C2C(=O)N1/N=C/c1cc(Br)cc([N+](=O)[O-])c1O (stereo not drawn) | inconclusive: 29.1 µM [cytotoxic, single point] | 
Cc1cc(Br)ccc1OCCCCNC(C)(C)C |  | inactive: -23.6%
CCOc1ccccc1N(CC(=O)Nc1ccccc1Br)S(=O)(=O)c1ccccc1 | inconclusive: 23.1 µM [cytotoxic, single point] | 
COc1cccc(C(=O)Nc2cnn(C(C)C)c2)c1 | inconclusive: 11.6 µM [cytotoxic, partial curve] | 
O=C(Nc1ccccc1F)c1coc(=O)c(Br)c1 |  | inactive: -0.51%
Cn1c(=O)c2c(SCC(=O)NCc3ccc(F)cc3)nc(-c3ccccc3Cl)nc2n(C)c1=O |  | inactive: 9.95%
COc1ccc(C(=O)CSc2nnc(CNc3ccc(C)cc3C)n2Cc2ccco2)cc1 | active: 3.66 µM | 
CC(=O)C(=Cc1ccc(C(=O)O)cc1)C(C)=O |  | inactive: 6.12%
COc1ccc(NC(=O)COC(=O)c2cccc(S(=O)(=O)N3CCCCC3)c2)c(OC)c1 | inconclusive: 32.6 µM [cytotoxic, single point] | 
Cc1[nH]nc(SCC(=O)N2CCCC2)c1[N+](=O)[O-] | inconclusive: 5.8 µM [cytotoxic, full curve] | 

Random excerpt: 2 entries already listed.
Compound | Potency | activity change, negative = cytotoxicity
O=S(=O)(NCC1CCCO1)c1ccc(S(=O)(=O)N(Cc2ccc(F)cc2)C2CCCCC2)cc1 (stereo not drawn) | inconclusive: 2.59 µM [cytotoxic, full curve, poor fit] | 
COc1ccc(NC(=O)COC(=O)c2cccc(S(=O)(=O)N3CCCCC3)c2)c(OC)c1 | inconclusive: 32.6 µM [cytotoxic, single point] | 

The list goes on.

Compound | Potency | activity change, negative = cytotoxicity
COc1ccc(CC(NC(C)=O)C(=O)NC2CCN(S(=O)(=O)c3ccccc3)CC2)c(OC)c1 (stereo not drawn) |  | inactive: 5.36%
C=CCn1c2[n+](c3ccccc3c1=O)CCCCC2 |  | inactive: 23%
COC(=O)c1cn(CCOc2ccccc2)c2ccccc12 | inconclusive: 23.1 µM [cytotoxic, partial curve, poor fit] | 
CC1(C(=O)O)C=CCN1C(=O)c1ccccc1 (stereo not drawn) | inconclusive: 4.61 µM [rising, full curve, poor fit] | 
Cc1ccc(S(=O)(=O)N(C)C)cc1NC(=O)c1c(-c2c(F)cccc2Cl)noc1C | inconclusive: 7.31 µM [cytotoxic, partial curve] | 
CCCCn1c(SCC(N)=O)nc2sc3c(c2c1=O)CCC3 |  | inactive: 0%
O=C(c1ccc2c(c1)OCCO2)C1CCN(S(=O)(=O)c2cccc(F)c2)CC1 | active: 20.6 µM | 
OC(Cn1cncn1)(c1ccccc1)c1ccccc1 |  | inactive: 5.06%
Cn1c(N)c(C(=O)COC(=O)Cc2c(F)cccc2Cl)c(=O)n(C)c1=O |  | inactive: -7.18%
COc1ccc(C(=O)NCc2ccc(-c3nc4ccccc4s3)cc2)cc1 | inconclusive: 20.6 µM [cytotoxic, partial curve, poor fit] | 
COc1ccc(/C(N)=N/OC(=O)CN(C)S(=O)(=O)c2ccccc2)cc1 | inconclusive: 29.1 µM [rising, single point] | 
CCCNc1nc(Nc2ccc(C)cc2)nc(N2CCCC2)n1 | active: 4.11 µM | 
NC(=O)c1cc(C(=O)c2cccc(Cl)c2Cl)c[nH]1 | inconclusive: 29.1 µM [cytotoxic, single point] | 
CN(C)c1ccc(S(=O)(=O)N2CCCCC2)cc1NC(=O)C1=NN(c2ccccc2)C(=O)CC1 |  | inactive: 4.76%
CC(=O)Nc1c(Br)cc2c(c1Br)Cc1cc([N+](=O)[O-])ccc1-2 | inconclusive: 4.11 µM [cytotoxic, full curve, poor fit] | 
CC(=O)C1=CCC(c2ccc(Cl)cc2)N(S(=O)(=O)c2ccccc2C)C1 (stereo not drawn) | inconclusive: 23.1 µM [cytotoxic, single point] | 
COc1ccc(-c2nc(C)c(CCNC(=O)c3c(F)cccc3F)s2)cc1 | inconclusive: 8.2 µM [cytotoxic, partial curve] | 
COc1cccc(NS(=O)(=O)c2ccc3[nH]cc(C(=O)NC4CC4)c(=O)c3c2)c1 | inconclusive: 29.1 µM [cytotoxic, single point] | 
COc1cccc(NC(=O)CC2S/C(=N\S(=O)(=O)c3ccccc3)N(c3ccccc3)C2=O)c1 (stereo not drawn) | inconclusive: 5.17 µM [rising, partial curve] | 
CCOc1ccc(OCC)c(NC(=O)CCc2nc3cccnc3n2Cc2cccs2)c1 |  | inactive: -15.4%
Cn1c(=O)c([N+](=O)[O-])c(NCCc2ccccc2)c2ccccc21 | inconclusive: 8.2 µM [cytotoxic, partial curve] | 

2 of these compounds, set out differently:
Compound,Potency,"activity change, negative = cytotoxicity"
Cc1ccc(S(=O)(=O)N(C)C)cc1NC(=O)c1c(-c2c(F)cccc2Cl)noc1C,"inconclusive: 7.31 µM [cytotoxic, partial curve]",
CCCCn1c(SCC(N)=O)nc2sc3c(c2c1=O)CCC3,,inactive: 0%
